Laboratory results from US7485434B2, “Method for screening compounds for those that modulate transducers of regulated CREB activity” (The Salk Institute for Biological Studies, priority 2005, dated 2009).
For at least one compound, name, drawing or mass did not settle the structure. Some of these results come from one statement about several compounds together.

Tests used:
TORC2 = TORC2 phosphorylation in HIT cells (Western blot, 32P-labeling); format: cell-based, Hamster; settings: flag-tagged TORC2
CREB target gene NR4A2 = experiment: Quantitative PCR of CREB target gene NR4A2 in MIN6 insulinoma cells; format: cell-based; settings: nifedipine 10 uM
Protocol: FIG. 1B presents quantitative PCR (Q-PCR) analysis of the CREB target gene NR4A2 in MIN6 insulinoma cells exposed to glucose (20 mM) and/or exendin-4 (10 nM).
Cells were treated with cAMP agonist (Forskolin, 10 μM) and KCl (45 mM) or vehicle control. For glucose experiments, MIN6 cells were starved overnight in DME containing 2.75 mM glucose plus 16 mM mannitol and 10% FBS. The next day the medium was changed for the indicated times+inhibitor. Total RNA from treated MIN6 or HIT cells was extracted using an RNeasy mini-kit (Qiagen, Valencia, Calif.). 500 ng-1 μg of total RNA was used for generating cDNA with Superscript II enzyme (Invitrogen, Carlsbad, Calif.). cDNAs were analyzed by quantitative PCR using SYBR green PCR kit and an ABIPRISM 7700 Sequence detector (Perkin Elmer, Foster City, Calif.). All PCR data for CREB target NR4A2 (Conkright et al., 2003b) was normalized to ribosomal L32 or 36B4 expression in the corresponding sample.
Hamster insulinoma (HIT) cells were employed to test the relative effects of cAMP and calcium signals on CREB activity. Opening of voltage-sensitive L-type calcium channels in response to KC1 depolarization induced the CREB-dependent EVX-1 promoter (Conknight et al., 2003b) 5-fold in HIT cells, whereas addition of cAMP agonist stimulated the reporter 10-fold (see FIG. 1A). […]

Row | SMILES | time to dephosphorylation of in vivo 32P-labeled TORC2 (TORC2) | effect on glucose-induced NR4A2 mRNA accumulation (CREB target gene NR4A2)
1 | [Cl-].[K+] [KCl] | ≤ 10 min | 
2 | COC(=O)C1=C(C)NC(C)=C(C(=O)OC)C1c1ccccc1[N+](=O)[O-] [nifedipine, Nifedipine] |  | blocked the effect of glucose on NR4A2 mRNA accumulation
